Values of other authors as cited in patent US20150079169A1 (POZEN INC., priority 2011, published 2015).
At least one structure is not confirmed: it was looked up by name or label, or the drawing left a doubt.

Tested on: platelets
Details: patients under clopidogrel maintenance treatment; versus 220.0 [143.8−388.8] without omeprazole; p=0.001

For `COc1ccc2[nH]c([S+]([O-])Cc3ncc(C)c(OC)c3C)nc2c1` (stereo not shown) [omeprazole], the “ADP-induced platelet aggregation measured with multiple electrode platelet aggregometry” value is given as 295.5 [193.5-571.2] AU*min.
